Publication doi:10.1101/2023.02.19.529116
No constants are given. Whether binding was seen depends on the method and setting. Some binding calls cover weakened binding; strength is not graded here. For some assays here: Sequences can lack the tags named with a protein. Each block holds one binder with its values, some of them ahead of it.

How the values were obtained:
[1] = target: T1, Smoothened cytotail (Smo 556-1036), ReLo (Drosophila) (UniProt P91682); test: ReLo
T1 sequence: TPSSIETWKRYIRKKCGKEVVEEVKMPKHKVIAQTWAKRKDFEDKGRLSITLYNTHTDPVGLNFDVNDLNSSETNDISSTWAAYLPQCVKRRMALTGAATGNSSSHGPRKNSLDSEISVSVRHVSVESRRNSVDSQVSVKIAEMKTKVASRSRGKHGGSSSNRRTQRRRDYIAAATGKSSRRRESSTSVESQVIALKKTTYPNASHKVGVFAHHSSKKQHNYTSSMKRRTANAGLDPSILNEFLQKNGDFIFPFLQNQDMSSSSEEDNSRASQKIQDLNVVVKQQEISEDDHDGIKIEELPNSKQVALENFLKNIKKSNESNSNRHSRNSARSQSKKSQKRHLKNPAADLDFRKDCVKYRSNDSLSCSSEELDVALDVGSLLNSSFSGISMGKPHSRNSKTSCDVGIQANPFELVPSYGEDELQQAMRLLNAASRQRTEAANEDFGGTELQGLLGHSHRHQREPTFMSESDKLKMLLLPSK

[2] = target: T2, Smoothened SBR (970-1003), ReLo (Drosophila) (UniProt P91682); test: ReLo
T2 sequence: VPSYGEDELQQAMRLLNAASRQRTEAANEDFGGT

[3] = target: T3, PH-EGFP-Smaug (Drosophila), Q23972; test: ReLo; conditions: remark: other sources report otherwise
T3 chain: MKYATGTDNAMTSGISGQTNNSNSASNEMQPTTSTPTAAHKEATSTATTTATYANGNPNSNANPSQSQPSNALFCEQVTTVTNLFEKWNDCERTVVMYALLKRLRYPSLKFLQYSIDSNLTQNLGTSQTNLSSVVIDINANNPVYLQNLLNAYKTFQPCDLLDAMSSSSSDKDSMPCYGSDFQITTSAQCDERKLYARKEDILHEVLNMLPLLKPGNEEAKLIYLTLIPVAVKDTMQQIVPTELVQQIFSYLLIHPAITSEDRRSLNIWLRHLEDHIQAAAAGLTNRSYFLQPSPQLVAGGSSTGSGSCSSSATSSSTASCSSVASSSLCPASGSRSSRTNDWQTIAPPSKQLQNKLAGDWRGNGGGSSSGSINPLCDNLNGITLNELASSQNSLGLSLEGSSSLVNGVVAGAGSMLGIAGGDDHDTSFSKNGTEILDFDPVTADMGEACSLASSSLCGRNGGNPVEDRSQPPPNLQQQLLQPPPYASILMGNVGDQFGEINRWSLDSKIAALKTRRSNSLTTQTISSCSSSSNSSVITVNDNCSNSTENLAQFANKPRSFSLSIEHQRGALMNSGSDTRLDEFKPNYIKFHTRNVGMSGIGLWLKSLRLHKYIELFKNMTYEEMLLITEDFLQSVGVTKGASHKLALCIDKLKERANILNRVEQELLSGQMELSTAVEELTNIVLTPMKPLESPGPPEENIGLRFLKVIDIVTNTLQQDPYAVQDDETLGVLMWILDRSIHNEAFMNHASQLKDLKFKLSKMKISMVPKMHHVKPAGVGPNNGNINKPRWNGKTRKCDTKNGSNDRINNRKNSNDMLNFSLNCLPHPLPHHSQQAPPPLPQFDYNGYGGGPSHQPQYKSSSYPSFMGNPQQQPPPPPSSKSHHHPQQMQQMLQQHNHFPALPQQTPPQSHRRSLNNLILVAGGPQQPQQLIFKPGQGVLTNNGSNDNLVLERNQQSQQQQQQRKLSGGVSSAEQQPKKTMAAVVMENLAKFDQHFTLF

[4] = target: T3, PH-EGFP-Smaug (Drosophila), Q23972; test: ReLo; conditions: remark: other sources report otherwise
[5] = target: T4, GST-Smoothened 970-1003 (SBR) wildtype (Drosophila) (UniProt P91682); test: pull-down
T4 sequence: T2 sequence

binding [1]: binds
binding [2]: binds
B1: Smaug NTD (Smaug 1-281), ReLo (domain or fragment, UniProt Q23972 1-281)
chain: MKYATGTDNAMTSGISGQTNNSNSASNEMQPTTSTPTAAHKEATSTATTTATYANGNPNSNANPSQSQPSNALFCEQVTTVTNLFEKWNDCERTVVMYALLKRLRYPSLKFLQYSIDSNLTQNLGTSQTNLSSVVIDINANNPVYLQNLLNAYKTFQPCDLLDAMSSSSSDKDSMPCYGSDFQITTSAQCDERKLYARKEDILHEVLNMLPLLKPGNEEAKLIYLTLIPVAVKDTMQQIVPTELVQQIFSYLLIHPAITSEDRRSLNIWLRHLEDHIQAAA

binding [3]: no binding
binding [4]: no binding
B2: Cup, Q9VMA3 1-1117 (protein)
chain: MQMAEAEQENGAGALKIATNAGATDRPAHQQLPLPVEDQQDEVLTPAEKGKFEYPPPPPPPTPVQAPLATKATALNASQEHDDDEANSEKWEDPCAPPPPPPLPTSAFLATGLGYLKLPAFKLKDALEKAITKLEANKRTLKASPESSRSIKNKNVVALEMLPRRSNPETIGDGSMLASTSTAVMLQTKKPAVIVEMERRCKIINLLAKQNQILESISGEAIPMHGPSKHLHEDEGLTLQVLSARASTPYTQPSSMLSCTAVSCDLEHDSPRKQVASKEAVPEQQSSQVQQKRPPSTGIHKPGSLRAPKAVRPTTAPVVSSKPVKSYTRSRLMDIRNGMFNALMHRSKESFVMPRIATCDDIELEGRLRRMNIWRTSDGTRFRTRSTTANLNMNNNNNNECMPAFFKNKNKPNLISDESIIQSQPPQPQTEFQDPAIVNQRRIGSGRLNHSKWGYNDEDYHSYHNGKSQHMEEVNSKNSKNMTVLQFFDNGEISSQPQRRPNTPVMGMSINRSENDTLHSNESSEDLSRANENYVKRVMSGFLVVSKPKSRDVEDRHHRRYRNQNEEPEWFSCGPTSRLDTIELCGFDEDEEKMLKEGNKNHGLGETERETSKQKMDHKYKWTHAEPMGRSKYMPKHDTNNNHNVENMNNVMATEHQQQKEEKRPGSGRSFQFDKFNQSQQNYESSSYVNHQQPPQTQPQQMQQQSNTNTNNSKFMSFFANEGNSSSSSLNEFFKQAINQGHGNNPEQPKSLGHIGQMPSVDQLEAKWRRNSLNNVGETANKQTDNFQKLIGSLSSAKPQSQAVGYDAISNFIMQQQQYQQQQQKQHLIIQQQQQHTAFLASLQLKAILGRADTQLLLLRLTKGEISKHGLLVQLANPRLTDMDREAITAVLQFTNTQQQQQQHKQQLDMLSSTVIASQLQNLHNLAIVQQTLAARQQPQHNPQTQAPHQLSQEDLQAHANVIMRNAVMKRKIEEQTSKLINGGAKHQAQQQYLNRGQQRQARPDANSNALLHALISGGGNNHASGYPMNGQPQKHHSNLRFGDNQNFQSFESNQPHFATQYKQQYQQSQQQHPHQQPQQLNSLHQNNAGAVNSFNKAQMQAQSAISMLPNSGDEFH

binding [5]: no binding
B3: Smaug NTD (70-281) S250E/L253E (domain or fragment, UniProt Q23972 70-281)
chain: SNALFCEQVTTVTNLFEKWNDCERTVVMYALLKRLRYPSLKFLQYSIDSNLTQNLGTSQTNLSSVVIDINANNPVYLQNLLNAYKTFQPCDLLDAMSSSSSDKDSMPCYGSDFQITTSAQCDERKLYARKEDILHEVLNMLPLLKPGNEEAKLIYLTLIPVAVKDTMQQIVPTELVQQIFEYLEIHPAITSEDRRSLNIWLRHLEDHIQAAA
